doi:10.1101/2023.12.23.573228
No constants are given. Whether binding was seen depends on the method and setting. Binding seen in cells or lysates may run through a third protein. Some entries that bind do so weakly or less than the wild type.

Chains of the proteins cited; added tags and fusions are not shown. Residues count along the entry.
UniProt Q92731: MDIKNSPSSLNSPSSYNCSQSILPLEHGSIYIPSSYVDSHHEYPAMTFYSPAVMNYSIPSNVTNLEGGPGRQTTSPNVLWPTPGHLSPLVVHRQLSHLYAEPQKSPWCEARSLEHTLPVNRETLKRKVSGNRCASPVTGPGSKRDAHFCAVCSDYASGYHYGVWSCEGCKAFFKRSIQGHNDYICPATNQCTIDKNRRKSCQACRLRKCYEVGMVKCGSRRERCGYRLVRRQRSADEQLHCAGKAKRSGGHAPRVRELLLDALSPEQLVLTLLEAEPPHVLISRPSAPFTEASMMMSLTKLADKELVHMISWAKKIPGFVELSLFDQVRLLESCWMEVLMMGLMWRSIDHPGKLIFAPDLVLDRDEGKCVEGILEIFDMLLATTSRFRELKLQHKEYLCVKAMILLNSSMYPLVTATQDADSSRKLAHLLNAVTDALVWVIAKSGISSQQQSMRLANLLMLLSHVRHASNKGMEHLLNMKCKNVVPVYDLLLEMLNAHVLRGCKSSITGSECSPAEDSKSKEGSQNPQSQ
UniProt P11021, residues 19-654: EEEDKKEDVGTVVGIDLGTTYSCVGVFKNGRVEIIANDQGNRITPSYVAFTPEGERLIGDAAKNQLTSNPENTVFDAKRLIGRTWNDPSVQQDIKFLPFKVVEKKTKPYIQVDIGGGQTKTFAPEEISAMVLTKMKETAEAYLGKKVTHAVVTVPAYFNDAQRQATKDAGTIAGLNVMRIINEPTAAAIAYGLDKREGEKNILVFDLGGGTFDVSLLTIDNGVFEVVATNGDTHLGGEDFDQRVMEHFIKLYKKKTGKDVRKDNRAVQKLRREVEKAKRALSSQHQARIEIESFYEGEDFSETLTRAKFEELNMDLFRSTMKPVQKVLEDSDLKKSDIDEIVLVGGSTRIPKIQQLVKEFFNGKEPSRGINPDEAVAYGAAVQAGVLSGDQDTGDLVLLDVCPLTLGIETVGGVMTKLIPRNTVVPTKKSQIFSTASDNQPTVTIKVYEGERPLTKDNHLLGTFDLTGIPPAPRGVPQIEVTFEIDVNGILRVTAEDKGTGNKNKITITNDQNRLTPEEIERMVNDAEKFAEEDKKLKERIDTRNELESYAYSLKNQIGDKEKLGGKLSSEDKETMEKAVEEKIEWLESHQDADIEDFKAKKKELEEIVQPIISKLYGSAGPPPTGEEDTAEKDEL
UniProt P05412: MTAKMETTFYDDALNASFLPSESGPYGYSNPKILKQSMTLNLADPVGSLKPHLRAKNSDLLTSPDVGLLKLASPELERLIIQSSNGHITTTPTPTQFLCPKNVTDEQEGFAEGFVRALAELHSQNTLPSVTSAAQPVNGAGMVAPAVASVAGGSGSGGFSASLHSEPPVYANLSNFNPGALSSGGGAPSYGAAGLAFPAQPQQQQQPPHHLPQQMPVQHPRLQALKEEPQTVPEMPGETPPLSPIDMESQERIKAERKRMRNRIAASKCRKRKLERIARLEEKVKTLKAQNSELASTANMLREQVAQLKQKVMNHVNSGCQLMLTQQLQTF

B1: CAT (enzyme, UniProt P04040 1-527)
chain: MADSRDPASDQMQHWKEQRAAQKADVLTTGAGNPVGDKLNVITVGPRGPLLVQDVVFTDEMAHFDRERIPERVVHAKGAGAFGYFEVTHDITKYSKAKVFEHIGKKTPIAVRFSTVAGESGSADTVRDPRGFAVKFYTEDGNWDLVGNNTPIFFIRDPILFPSFIHSQKRNPQTHLKDPDMVWDFWSLRPESLHQVSFLFSDRGIPDGHRHMNGYGSHTFKLVNANGEAVYCKFHYKTDQGIKNLSVEDAARLSQEDPDYGIRDLFNAIATGKYPSWTFYIQVMTFNQAETFPFNPFDLTKVWPHKDYPLIPVGKLVLNRNPVNYFAEVEQIAFDPSNMPPGIEASPDKMLQGRLFAYPDTHRHRLGPNYLHIPVNCPYRARVANYQRDGPMCMQDNQGGAPNYYPNSFGAPEQQPSALEHSIQYSGEVRRFNTANDDNVTQVRAFYVNVLNEEQRKRLCENIAGHLKDAQIFIQKKAVKNFTEVHPDYGSHIQALLDKYNAEKPKNAIHTFVQSGSHLAAREKANL

target: human estrogen receptor beta (ERβ) (human) (UniProt Q92731); assay: co-IP

binding, binds:
HSPA5 (from UniProt P11021 19-654), JUN (from UniProt P05412 1-331), B1
